# Assay results as given in the supplement of paper PMC8728848.
# The other results are listed elsewhere or left out.
# Columns and labels:
# Test in all cases: glycan array binding signal (z-score within array); higher = stronger binding
# Conditions in all cases: glycan notation: IUPAC condensed, linker removed
# [1] = molecular target: Gal(b1-3)GlcNAc(b1-6)[Gal(b1-3)]GalNAc
# Method in brief: (§1)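 Columns mapping to the same glycan were averaged after glycan names were converted to IUPAC-condensed notation. The data come from 3228 arrays in the Consortium for Functional Glycomics database, limited to those with an available protein sequence. Binding is reported as a within-array Z-score averaged across arrays of one protein sequence and across linkers.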
# Gal(b1-3)GlcNAc6S = molecular target: Gal(b1-3)GlcNAc6S
# Method in brief: as §1
# [2] = molecular target: Gal(b1-3)[Fuc(a1-4)]GlcNAc
# Method in brief: as §1
# [3] = molecular target: Gal(b1-3)[Fuc(a1-4)]GlcNAc(b1-2)Man
# Method in brief: as §1
# [4] = molecular target: Gal(b1-3)[Fuc(a1-4)]GlcNAc(b1-2)Man(a1-3)[Gal(b1-3)[Fuc(a1-4)]GlcNAc(b1-2)Man(a1-6)]Man(b1-4)GlcNAc(b1-4)[Fuc(a1-6)]GlcNAc
# Method in brief: as §1
# [5] = molecular target: Gal(b1-3)[Fuc(a1-4)]GlcNAc(b1-3)Gal(b1-3)[Fuc(a1-4)]GlcNAc
# Method in brief: as §1
# [6] = molecular target: Gal(b1-3)[Fuc(a1-4)]GlcNAc(b1-3)Gal(b1-4)[Fuc(a1-3)]GlcNAc
# Method in brief: as §1
# [7] = molecular target: Gal(b1-3)[Fuc(a1-4)]GlcNAc(b1-6)GalNAc
# Method in brief: as §1
# [8] = molecular target: Gal(b1-3)[GlcNAc(b1-6)]GalNAc
# Method in brief: as §1
# [9] = molecular target: Gal(b1-3)[Neu5Ac(a2-6)]GalNAc
# Method in brief: as §1
# [10] = molecular target: Gal(b1-3)[Neu5Ac(a2-6)]GlcNAc(b1-4)Gal(b1-4)Glc
# Method in brief: as §1
# [11] = molecular target: Gal(b1-3)[Neu5Ac(b2-6)]GalNAc
# Method in brief: as §1
# Gal(b1-4)Gal = molecular target: Gal(b1-4)Gal
# Method in brief: as §1
# [12] = molecular target: Gal(b1-4)GalNAc(a1-3)[Fuc(a1-2)]Gal(b1-4)GlcNAc
# Method in brief: as §1
# [13] = molecular target: Gal(b1-4)GalNAc(b1-3)[Fuc(a1-2)]Gal(b1-4)GlcNAc
# Method in brief: as §1
# Gal(b1-4)Glc = molecular target: Gal(b1-4)Glc
# Method in brief: as §1
# Gal(b1-4)Glc6S = molecular target: Gal(b1-4)Glc6S
# Method in brief: as §1
# Gal(b1-4)GlcNAc = molecular target: Gal(b1-4)GlcNAc
# Method in brief: as §1
# [14] = molecular target: Gal(b1-4)GlcNAc(a1-6)Gal(b1-4)GlcNAc
# Method in brief: as §1
# Gal(b1-4)GlcNAc(b1-2)Man = molecular target: Gal(b1-4)GlcNAc(b1-2)Man
# Method in brief: as §1
# [15] = molecular target: Gal(b1-4)GlcNAc(b1-2)Man(a1-3)Man(b1-4)GlcNAc(b1-4)GlcNAc
# Method in brief: as §1
# [16] = molecular target: Gal(b1-4)GlcNAc(b1-2)Man(a1-3)[Gal(b1-4)GlcNAc(b1-2)Man(a1-6)]Man(b1-4)GlcNAc(b1-4)GlcNAc
# Method in brief: as §1
# [17] = molecular target: Gal(b1-4)GlcNAc(b1-2)Man(a1-3)[Gal(b1-4)GlcNAc(b1-2)Man(a1-6)]Man(b1-4)GlcNAc(b1-4)[Fuc(a1-6)]GlcNAc
# Method in brief: as §1
# [18] = molecular target: Gal(b1-4)GlcNAc(b1-2)Man(a1-3)[Gal(b1-4)GlcNAc(b1-2)Man(a1-6)][Gal(b1-4)GlcNAc(b1-4)]Man(b1-4)GlcNAc(b1-4)[Fuc(a1-6)]GlcNAc
# Method in brief: as §1
# [19] = molecular target: Gal(b1-4)GlcNAc(b1-2)Man(a1-3)[Gal(b1-4)GlcNAc(b1-2)Man(a1-6)][GlcNAc(b1-4)]Man(b1-4)GlcNAc(b1-4)[Fuc(a1-6)]GlcNAc
# Method in brief: as §1
# [20] = molecular target: Gal(b1-4)GlcNAc(b1-2)Man(a1-3)[GlcNAc(b1-2)Man(a1-6)]Man(b1-4)GlcNAc(b1-4)GlcNAc
# Method in brief: as §1
# [21] = molecular target: Gal(b1-4)GlcNAc(b1-2)Man(a1-3)[GlcNAc(b1-4)][Gal(b1-4)GlcNAc(b1-2)Man(a1-6)]Man(b1-4)GlcNAc(b1-4)GlcNAc
# Method in brief: as §1
# [22] = molecular target: Gal(b1-4)GlcNAc(b1-2)Man(a1-3)[Man(a1-6)]Man(b1-4)GlcNAc(b1-4)GlcNAc
# Method in brief: as §1
# [23] = molecular target: Gal(b1-4)GlcNAc(b1-2)Man(a1-6)Man(b1-4)GlcNAc(b1-4)GlcNAc
# Method in brief: as §1
# [24] = molecular target: Gal(b1-4)GlcNAc(b1-2)Man(a1-6)[GlcNAc(b1-2)Man(a1-3)]Man(b1-4)GlcNAc(b1-4)GlcNAc
# Method in brief: as §1
# [25] = molecular target: Gal(b1-4)GlcNAc(b1-2)Man(a1-6)[Man(a1-3)]Man(b1-4)GlcNAc(b1-4)GlcNAc
# Method in brief: as §1
# [26] = molecular target: Gal(b1-4)GlcNAc(b1-2)[Gal(b1-4)GlcNAc(b1-4)]Man(a1-3)[Gal(b1-4)GlcNAc(b1-2)Man(a1-6)]Man(b1-4)GlcNAc(b1-4)GlcNAc
# Method in brief: as §1
# [27] = molecular target: Gal(b1-4)GlcNAc(b1-2)[Gal(b1-4)GlcNAc(b1-4)]Man(a1-3)[Gal(b1-4)GlcNAc(b1-2)[Gal(b1-4)GlcNAc(b1-6)]Man(a1-6)]Man(b1-4)GlcNAc(b1-4)GlcNAc
# Method in brief: as §1
# [28] = molecular target: Gal(b1-4)GlcNAc(b1-2)[Gal(b1-4)GlcNAc(b1-4)]Man(a1-3)[GlcNAc(b1-4)][Gal(b1-4)GlcNAc(b1-2)Man(a1-6)]Man(b1-4)GlcNAc(b1-4)GlcNAc
# Method in brief: as §1
# [29] = molecular target: Gal(b1-4)GlcNAc(b1-2)[Gal(b1-4)GlcNAc(b1-4)]Man(a1-3)[GlcNAc(b1-4)][Gal(b1-4)GlcNAc(b1-2)[Gal(b1-4)GlcNAc(b1-6)]Man(a1-6)]Man(b1-4)GlcNAc(b1-4)GlcNAc
# Method in brief: as §1
# [30] = molecular target: Gal(b1-4)GlcNAc(b1-2)[Gal(b1-4)GlcNAc(b1-6)]Man(a1-6)[Gal(b1-4)GlcNAc(b1-2)Man(a1-3)]Man(b1-4)GlcNAc(b1-4)GlcNAc
# Method in brief: as §1
# [31] = molecular target: Gal(b1-4)GlcNAc(b1-2)[Gal(b1-4)GlcNAc(b1-6)]Man(a1-6)[Gal(b1-4)GlcNAc(b1-2)Man(a1-3)]Man(b1-4)GlcNAc(b1-4)[Fuc(a1-6)]GlcNAc
# Method in brief: as §1
binder,measurement,setting,value
GS7807Q-bfa-507-19-507 (Bacteroides fragilis) (protein) ASCNKFDDLNTNPDAATKVTAPMLATKLILNITQQGSAKNFVYHSMLSKQIAWSENASDEQYNLFGRTDFDGYTILTNCQKMVDAANEGDKDSYAALAKFMKAYKLFYKSLEVGDIPYSDALKGEEGVQKPKYDTQKEVMRQVLEDLEEAYTLFSSGSDFDGDPIFGGDTENWKKTVVAFELKVLTHLCKKDTDADLKVKERFARLVSSGSLMTSNADNFQLVYSNKAGQLYPFYYTQNKHSDYLMMSSVIIDNLKKFNDYRMFYYASPAKAQTDKGIKDSEWDAYLSIDPSDSYSNISVLYGKGEFCLANLRYTRVPEGEPLMRLSYAEQNFILAEGAVRGWISEDASTYYKKGIEASMNFIADNTPDKEEYTHGRTITQEYIQEYLAQPVIQLSGDKEKDLEMILLQRYLASFLQHPYDAYYDYRRTGYPVLPINPSTNLNTEKNKIPTRWMYPEAEFSYNPDNANEAVQRQYNGSDDVNKLMWILQ,glycan array binding signal (z-score),[1],-0.561
same,glycan array binding signal (z-score),Gal(b1-3)GlcNAc6S,-0.107
same,glycan array binding signal (z-score),[2],-0.643
same,glycan array binding signal (z-score),[3],-0.028
same,glycan array binding signal (z-score),[4],3.07
same,glycan array binding signal (z-score),[5],0.018
same,glycan array binding signal (z-score),[6],-0.731
same,glycan array binding signal (z-score),[7],1.6
same,glycan array binding signal (z-score),[8],-0.796
same,glycan array binding signal (z-score),[9],-0.027
same,glycan array binding signal (z-score),[10],-0.953
same,glycan array binding signal (z-score),[11],-0.114
same,glycan array binding signal (z-score),Gal(b1-4)Gal,-0.546
same,glycan array binding signal (z-score),[12],-0.984
same,glycan array binding signal (z-score),[13],0.8
same,glycan array binding signal (z-score),Gal(b1-4)Glc,-0.523
same,glycan array binding signal (z-score),Gal(b1-4)Glc6S,-0.246
same,glycan array binding signal (z-score),Gal(b1-4)GlcNAc,0.007
same,glycan array binding signal (z-score),[14],-0.867
same,glycan array binding signal (z-score),Gal(b1-4)GlcNAc(b1-2)Man,0.859
same,glycan array binding signal (z-score),[15],0.216
same,glycan array binding signal (z-score),[16],0.26
same,glycan array binding signal (z-score),[17],-0.245
same,glycan array binding signal (z-score),[18],0.294
same,glycan array binding signal (z-score),[19],-0.502
same,glycan array binding signal (z-score),[20],-0.596
same,glycan array binding signal (z-score),[21],-0.058
same,glycan array binding signal (z-score),[22],0.768
same,glycan array binding signal (z-score),[23],0.767
same,glycan array binding signal (z-score),[24],-0.286
same,glycan array binding signal (z-score),[25],-0.549
same,glycan array binding signal (z-score),[26],2.14
same,glycan array binding signal (z-score),[27],-0.9
same,glycan array binding signal (z-score),[28],0.445
same,glycan array binding signal (z-score),[29],0.485
same,glycan array binding signal (z-score),[30],0.33
same,glycan array binding signal (z-score),[31],0.554

# Part of the list above, tab-delimited.
binder	measurement	setting	value
GS7807Q-bfa-507-19-507 (Bacteroides fragilis) (protein) ASCNKFDDLNTNPDAATKVTAPMLATKLILNITQQGSAKNFVYHSMLSKQIAWSENASDEQYNLFGRTDFDGYTILTNCQKMVDAANEGDKDSYAALAKFMKAYKLFYKSLEVGDIPYSDALKGEEGVQKPKYDTQKEVMRQVLEDLEEAYTLFSSGSDFDGDPIFGGDTENWKKTVVAFELKVLTHLCKKDTDADLKVKERFARLVSSGSLMTSNADNFQLVYSNKAGQLYPFYYTQNKHSDYLMMSSVIIDNLKKFNDYRMFYYASPAKAQTDKGIKDSEWDAYLSIDPSDSYSNISVLYGKGEFCLANLRYTRVPEGEPLMRLSYAEQNFILAEGAVRGWISEDASTYYKKGIEASMNFIADNTPDKEEYTHGRTITQEYIQEYLAQPVIQLSGDKEKDLEMILLQRYLASFLQHPYDAYYDYRRTGYPVLPINPSTNLNTEKNKIPTRWMYPEAEFSYNPDNANEAVQRQYNGSDDVNKLMWILQ	glycan array binding signal (z-score)	[1]	-0.561
same	glycan array binding signal (z-score)	[5]	0.018
same	glycan array binding signal (z-score)	[6]	-0.731
same	glycan array binding signal (z-score)	[12]	-0.984
same	glycan array binding signal (z-score)	Gal(b1-4)Glc	-0.523
same	glycan array binding signal (z-score)	Gal(b1-4)Glc6S	-0.246
same	glycan array binding signal (z-score)	Gal(b1-4)GlcNAc(b1-2)Man	0.859
same	glycan array binding signal (z-score)	[16]	0.26
same	glycan array binding signal (z-score)	[18]	0.294
same	glycan array binding signal (z-score)	[24]	-0.286
